From patent publication US20240228559A1, “REDOX SENSITIVE CRALBP MUTANT PROTEINS” (UNIVERSITÄT BERN, priority 2021, published 2024)

Assay: UV-Vis absorption spectral ratio for ligand loading of monomeric complexes
Assay type: physicochemical
Details: monomeric complex with 9-cis retinal; 2.2 = fully saturated
Excerpt: Again, four significant peaks with similar elution volumes can be observed when the apo di-cysteine mutant A212C:T250C of CRALBP are loaded with cis-retinal. […] The order of the peaks is as follows: the first peak from left to right corresponds to the super high molecular weight (SHMW) fractions, the second peak corresponds to the high molecular weight (HMW) fraction, the third peak corresponds to dimeric, and the fourth peak to monomeric fractions, respectively. UV-Vis absorption spectra of monomeric wild type CRALBP and of the A212C: T250C mutant in complex with 9-cis retinal were used to determine the ligand loading of the monomeric complexes. For this, the absorption spectra were normalized to the maximum absorption, of the protein at approximately 280 nm. According to Crabb et al. (Crabb J W. et al., (1998), Protein Sci. 7(3): 746-57) the absorption maximum at 280 nm corresponds to the protein concentration, and the one at 400 nm to bound 9-cis retinal. The fully saturated CRALBP in complex with 9-cis retinal has been reported by the later to have an ideal spectral ratio of ε^280/ε^400=2.2 In our experiments, the ratios for wild-type CRALBP:9-cis retinal and for the A212C:T250C:9-cis retinal mutant are 2.31 and 2.21, respectively, indicating the formation of fully saturated 1:1 complexes (see FIG. 6).

| Substance | spectral ratio ε^280/ε^400 |
| --- | --- |
| A212C:T250C:9-cis retinal: monomeric A212C:T250C mutant in complex with 9-cis retinal | 2.21 |
| wild-type CRALBP:9-cis retinal: monomeric wild type CRALBP in complex with 9-cis retinal [reference compound] | 2.31 |
